{
  "source": "patent US10301323B2",
  "about": "“Histone deacetylase inhibitors” (BIOMARIN PHARMACEUTICAL INC., priority 2011, dated 2019)",
  "system": "C57BL/6J male mice",
  "assay": "Long term memory for object recognition",
  "type": "in vivo",
  "details": "3, 10, 30 mg/kg subcutaneous; object recognition memory task",
  "description": "C57BL/6J male mice were handled 1-2 min for 5 days and were habituated to the experimental apparatus 5 min a day for 4 consecutive days in the absence of objects. […] 24-h later mice were tested for memory retention (5 min) using the object recognition memory task (ORM), in which a familiar object was replaced with a novel one. All training and testing trials were videotaped and analyzed by individuals blind to the treatment condition and the genotype of subjects. A mouse was scored as exploring an object when its head was oriented toward the object within a distance of 1 cm or when the nose was touching the object. The relative exploration time was recorded and expressed by a discrimination index [DI=(tnovel−tfamiliar)/(tnovel+tfamiliar)×100].",
  "data": [
    {"smiles": "Cc1ccc(C(=O)NCCCCCC(=O)Nc2ccccc2N)cc1", "note": "[RGFP 109]", "values": [
      {"measurement": "dose dependence of the effect on long-term memory", "value": "Dose dependent effects"}
    ]}
  ]
}
